Assay results: paper PMC5688218
These are yes or no findings as the source states them, for the method shown. For part of these data: Binding seen in cells or lysates may run through a third protein. Some entries that bind do so weakly or less than the wild type. For part of these data: Tags and fused reporters may be left off the sequences shown.

Sequences of proteins named here, by UniProt entry; tags and fusion partners are left off. Residues count along the entry.
UniProt P21506, residues 14-85: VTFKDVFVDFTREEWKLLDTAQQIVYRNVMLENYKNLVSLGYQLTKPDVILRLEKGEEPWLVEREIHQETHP
UniProt Q96EQ9: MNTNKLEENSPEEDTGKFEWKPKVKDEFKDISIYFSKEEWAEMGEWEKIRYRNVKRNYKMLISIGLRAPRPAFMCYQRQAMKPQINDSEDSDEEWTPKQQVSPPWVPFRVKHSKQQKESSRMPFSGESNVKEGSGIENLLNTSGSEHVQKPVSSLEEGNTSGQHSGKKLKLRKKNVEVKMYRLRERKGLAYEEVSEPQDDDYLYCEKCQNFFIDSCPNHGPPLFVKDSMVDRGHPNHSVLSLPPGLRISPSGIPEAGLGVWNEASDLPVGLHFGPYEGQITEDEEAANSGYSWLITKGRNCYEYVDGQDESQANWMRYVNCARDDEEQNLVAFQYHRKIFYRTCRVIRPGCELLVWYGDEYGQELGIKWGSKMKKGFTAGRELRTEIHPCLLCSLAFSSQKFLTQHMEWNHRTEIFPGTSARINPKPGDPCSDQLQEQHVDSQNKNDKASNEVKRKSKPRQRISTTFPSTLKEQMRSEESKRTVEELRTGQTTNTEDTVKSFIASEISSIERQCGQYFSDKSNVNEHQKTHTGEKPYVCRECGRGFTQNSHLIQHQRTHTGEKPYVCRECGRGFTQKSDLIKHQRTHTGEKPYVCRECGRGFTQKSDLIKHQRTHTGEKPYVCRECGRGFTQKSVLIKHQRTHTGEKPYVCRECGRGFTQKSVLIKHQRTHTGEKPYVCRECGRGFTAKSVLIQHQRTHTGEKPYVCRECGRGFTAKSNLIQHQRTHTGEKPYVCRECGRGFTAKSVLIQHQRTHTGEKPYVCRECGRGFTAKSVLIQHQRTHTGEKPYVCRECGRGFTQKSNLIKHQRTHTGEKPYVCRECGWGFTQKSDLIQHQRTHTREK
UniProt Q9CWW7: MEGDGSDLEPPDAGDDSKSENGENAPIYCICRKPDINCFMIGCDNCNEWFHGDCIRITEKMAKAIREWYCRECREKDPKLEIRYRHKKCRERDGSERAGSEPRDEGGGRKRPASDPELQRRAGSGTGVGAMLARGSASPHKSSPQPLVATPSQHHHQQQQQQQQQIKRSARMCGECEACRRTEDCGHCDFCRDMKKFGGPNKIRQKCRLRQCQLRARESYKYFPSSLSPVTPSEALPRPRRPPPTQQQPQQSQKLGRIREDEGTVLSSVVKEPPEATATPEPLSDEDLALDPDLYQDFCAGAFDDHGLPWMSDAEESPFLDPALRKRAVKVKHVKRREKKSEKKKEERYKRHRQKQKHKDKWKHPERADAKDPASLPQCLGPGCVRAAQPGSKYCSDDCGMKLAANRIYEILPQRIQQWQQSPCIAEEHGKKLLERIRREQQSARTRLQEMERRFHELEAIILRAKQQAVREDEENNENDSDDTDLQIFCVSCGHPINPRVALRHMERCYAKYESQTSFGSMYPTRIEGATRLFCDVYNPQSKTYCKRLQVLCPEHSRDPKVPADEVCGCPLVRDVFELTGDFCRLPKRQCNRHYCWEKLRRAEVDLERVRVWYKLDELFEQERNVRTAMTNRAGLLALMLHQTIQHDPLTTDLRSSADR

B1: N-terminal fragment of TRIM28 (amino acid residues 1–419), Gal4 AD fusion (domain or fragment, UniProt Q13263 1-419)
chain: MAASAAAASAAAASAASGSPGPGEGSAGGEKRSTAPSAAASASASAAASSPAGGGAEALELLEHCGVCRERLRPEREPRLLPCLHSACSACLGPAAPAAANSSGDGGAAGDGTVVDCPVCKQQCFSKDIVENYFMRDSGSKAATDAQDANQCCTSCEDNAPATSYCVECSEPLCETCVEAHQRVKYTKDHTVRSTGPAKSRDGERTVYCNVHKHEPLVLFCESCDTLTCRDCQLNAHKDHQYQFLEDAVRNQRKLLASLVKRLGDKHATLQKSTKEVRSSIRQVSDVQKRVQVDVKMAILQIMKELNKRGRVLVNDAQKVTEGQQERLERQHWTMTKIQKHQEHILRFASWALESDNNTALLLSKKLIYFQLHRALKMIVDPVEPHGEMKFQWDLNAWTKSAEAFGKIVAERPGTNSTG
B2: mouse CEP70, full length (Gal4 AD fusion) (protein, UniProt Q6IQY5 1-616)
chain: MTEGSQIFLLPISTSDSTKEPLSPVASKAQDPSLLSNRLMIEKQQEEAEWESINGLLMTHGFKPLCLVKGADLRDFIVFDKQSSQKMRQILKTLMEETTRQQSMIRELIETNQQLKSELQLEQNRAAHQEQRANDLQQIMDSVKSKIGELEDESLNRVCQQQNRIKDLQKEYKMLQMKCQQYKKNRMEQEGTIASLQKEIHRLAKEEEERILTQNRVFAHLCRRVPHSVLDKQLLCLIDYYECKLRKLHIQRQFEEDSQSEEKDFTNLGASPNYKGVLMSLQKQLKESKSRIDVLVGEKLSLQKDLENRPTEHELRLYKQQVKKLEKTLKKNIKLQDLIGQKKSDDTEKKDEPSKDSHQQALIEQSYFQVLCSINSIVHNPRAPVIIYKQSKGRAPNGNKDIGQDCGFEHLVPIIEMWVDELTSLKDLYKSLKILSAELVPWHSLKKLDEKEGVKVGDLLFMVDTMLEEVENQKETSSTPNSQTLQAIVSHFQKLFDVQSLNGVFPRMNEVYTRLGEMNNAVRNLQELLELDSSSSLCVVVSTVGKLCEIINKDVSEQVKQVLGPEDLQSIIKKLEEHEEFFPAFQAFANDLLEILEIDDLDAIVPAVKKLKILSY
B3: mouse FKBP6 85–327 (Gal4 AD fusion) (domain or fragment, UniProt Q91XW8 85-327)
chain: KLGEDITLWGMELGLLSMRKGELARFLFKPAYAYGTLGCPPLIPPNATVLFEIELIDFLDSAESDKFCALSAEQQEQFPLQKVLKVAATEREFGNYLFRQNRFCDAKVRYKRALLLLHRRLATCEEQHLVEPAVLLVLLNLSFVYLKLDRPAMALRYGEQALLIDKRNAKALFRCGQACLLLTEYERARDFLVRAQKEQPCNHDINNELKKLSSHYRDYVDREREMCHRMFAPCGSRSSVGGN
B4: mouse IFT88, full length (Gal4 AD fusion) (protein, UniProt Q61371 1-824)
chain: MENVHLAPETDEDDLYSGFNDYNPAYDTEELENDTGFQQAVRTSHGRRPPVTAKIPSTAVSRPIATGYGSKTSLTSSMGRPMTGTIQDGVARPMTAVRAAGFSKAALRGSAFDPLGQSRGPAPPLEAKNEDSPEEKIRQLEKKVNELVEESCIANSCGDLKLALEKAKDAGRKERVLVRQREQVTSPENINLDLTYSVLFNLASQYSANEMYAEALNTYQVIVKNKMFSNAGRLKVNMGNIYLKQRNYSKAIKFYRMALDQIPSVHKEMRIKIMQNIGITFIKTGQYSDAINSFEHIMSMAPSLKAGFNLILSCFAIGDREKMKKAFQKLIAVPLEIDEDDKYISPSDDPHTNLLIEAIKNDHLRQMERERKAMAEKYIMTAAKLIAPVIEASFAVGYNWCVEVVKASQYVELANDLEINKAITYLRQKDFNQAVDTLKMFEKKDSRVKSAAATNLSFLYYLENEFAQASSYADLAVNSDRYNPSALTNKGNTVFANGDYEKAAEFYKEALRNDSSCTEALYNIGLTYKKLNRLDEALDSFLKLHAILRNSAQVLCQIANIYELMEDPNQAIEWLMQLISVVPTDSQALSKLGELYDSEGDKSQAFQYYYESYRYFPSNIEVIEWLGAYYIDTQFCEKAIQYFERASLIQPTQVKWQLMVASCFRRSGNYQKALDTYKEIHRKFPENVECLRFLVRLCTDIGLKEVQEYATKLKRLEKMKEMREQRIKSGRDSSGGSRSKREGSAGSDSGQNNSASSKSERLSAKLRALPGTDEPYESSGNKEIDASYVDPLGPQIERPKTAAKKRIDEDDFADEELGDDLLPE
B5: IHO1 in mouse testis extracts (protein, UniProt Q6PDM4 1-574)
chain: MNFNVWNVKEMLSIPSGSGITKPSNWNNNQTDCSLSDSQFLFGSQFCPENSETLLPSLDAGACLRHPKQTQQNSVDSEPSIFIKYQAKPQLLGGDTKDESLFSLPLPVGKSKGLSKQFEEKKRRATDQSDSETLHSFVSHFPEVINKLQTSVEKTEENLSSRSQSILDSVETIAKTFQETARVQHDLMVESVRDKGSMEQAILEIQRTCAARQAEFMEMKSTLKNLEVLVVEQTKNLQQFCDNLSQLIVPGILEELKKFTSVPQVAGHLKDSTSQTSPSLTQSLHFTRQEKHPSEEPATWQAQEAPAGNPSTSSQRPGECGVWDEGAESGVFQKAALPTDGLHRGDGHVKNKTVPTYCKNWVMTTRSVSNHFSNLPSQRAGNGQGLMAQGASQRDVSKFEARVKNACPEYGPQSMCSFDSLEQSATEQKGRPCRKRRRGKKQQPQRSKRGGLLDRKQGQTSKAACAFIARHHCPQSPVCDPQGPLICWLTPRSSTKSTCHILGGTGETSQTARAAQGNLVQHSQRSSTDSSSQGDQQINWFSDLSLENLEPPQCKKGGTNLLCDPDFDSSDDNF

What was measured:
[1] = target: KRAB domain of human KOX1 (Gal4 BD-KOX1 KRAB) (human) (UniProt P21506); experiment: two-hybrid; Gal4 AD fusions (Y187) mated with Gal4 BD fusions (AH109); growth of diploids on −LWH and −LWHAd after 3 days at 30 °C, by streaking or spotting; 5 mM 3-AT added to −LWH for self-activating constructs
[2] = target: mouse PRDM9, full length (Gal4 BD-PRDM9 FL) (mouse) (UniProt Q96EQ9); experiment: as above
[3] = target: PRDM9 in mouse testis extracts (mouse (endogenous in testis)) (UniProt Q96EQ9); experiment: co-IP; mouse testis extracts, various approaches; high salt conditions required for PRDM9 extraction
[4] = target: CXXC1 in mouse testis extracts (mouse (endogenous in testis)) (UniProt Q9CWW7); experiment: as above

Row | Binder | binding [2] | also measured
1 | B1 |  | binding [1]: binds
2 | B2 | binds | 
3 | B3 | binds | 
4 | B4 | binds | 
5 | B5 |  | binding [3]: no binding; binding [4]: no binding
